Literature values, collected in patent US20210323993A1, “Compounds Useful in HIV Therapy” (priority 2018, published 2021).
Some of these results come from one statement about several compounds together. For at least one compound, name, drawing or mass did not settle the structure.

Tested on: M184V mutation
Conditions: M184V mutation selected on a regimen containing 3TC/FTC

In the case of Nc1ccn([C@@H]2CS[C@H](CO)O2)c(=O)n1 [Example 3TC, lamivudine], the “reduction of susceptibility by M184V mutation” value is given as > 100 fold.
